Measured values published in article PMC8534798.
These are yes or no findings as the source states them, for the method shown. Binding seen in cells or lysates may run through a third protein. Some entries that bind do so weakly or less than the wild type. Sequences can lack the tags named with a protein.

The chains behind the UniProt entries cited, without tags or fusion partners. Where a name states a change or a piece, a line headed by the entry shows the natural chain unless it says otherwise.
UniProt Q15796: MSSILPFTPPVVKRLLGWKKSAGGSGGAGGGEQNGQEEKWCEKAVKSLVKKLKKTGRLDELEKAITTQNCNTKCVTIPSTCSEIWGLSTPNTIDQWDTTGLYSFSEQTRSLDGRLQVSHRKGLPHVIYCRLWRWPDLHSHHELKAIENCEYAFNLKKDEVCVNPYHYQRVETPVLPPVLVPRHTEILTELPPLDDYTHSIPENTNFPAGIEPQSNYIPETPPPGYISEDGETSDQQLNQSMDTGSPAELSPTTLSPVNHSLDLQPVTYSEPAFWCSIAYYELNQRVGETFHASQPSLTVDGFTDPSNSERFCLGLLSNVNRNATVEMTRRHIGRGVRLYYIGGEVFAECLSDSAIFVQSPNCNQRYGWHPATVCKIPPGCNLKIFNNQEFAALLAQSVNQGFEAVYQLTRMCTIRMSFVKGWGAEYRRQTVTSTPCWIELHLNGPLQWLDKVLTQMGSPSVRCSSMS
UniProt P84022: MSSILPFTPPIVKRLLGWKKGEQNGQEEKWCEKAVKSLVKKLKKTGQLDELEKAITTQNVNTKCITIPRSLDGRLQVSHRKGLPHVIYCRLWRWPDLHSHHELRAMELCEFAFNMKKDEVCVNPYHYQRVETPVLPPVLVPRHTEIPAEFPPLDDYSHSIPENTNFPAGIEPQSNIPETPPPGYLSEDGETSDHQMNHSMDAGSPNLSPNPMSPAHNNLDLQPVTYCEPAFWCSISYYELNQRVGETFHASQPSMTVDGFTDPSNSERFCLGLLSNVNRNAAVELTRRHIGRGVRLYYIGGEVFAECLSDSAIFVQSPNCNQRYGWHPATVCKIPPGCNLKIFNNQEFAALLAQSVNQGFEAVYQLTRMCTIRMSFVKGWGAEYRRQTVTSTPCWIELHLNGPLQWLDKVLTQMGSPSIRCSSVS

These substances were tested against T1, Flag-Foxd4l1.1 (Xenopus) (UniProt Q9PRJ8) (assay: co-IP; Xenopus embryos co-injected with Flag-foxd4l1.1 and HA-smad2/HA-smad3 (wild type or truncated) mRNA at the one-cell stage, harvested at stage 10.5 or 11; cleared lysates incubated overnight at 4 °C with anti-Flag, protein A/G beads; Western blot with anti-HA).
T1 sequence: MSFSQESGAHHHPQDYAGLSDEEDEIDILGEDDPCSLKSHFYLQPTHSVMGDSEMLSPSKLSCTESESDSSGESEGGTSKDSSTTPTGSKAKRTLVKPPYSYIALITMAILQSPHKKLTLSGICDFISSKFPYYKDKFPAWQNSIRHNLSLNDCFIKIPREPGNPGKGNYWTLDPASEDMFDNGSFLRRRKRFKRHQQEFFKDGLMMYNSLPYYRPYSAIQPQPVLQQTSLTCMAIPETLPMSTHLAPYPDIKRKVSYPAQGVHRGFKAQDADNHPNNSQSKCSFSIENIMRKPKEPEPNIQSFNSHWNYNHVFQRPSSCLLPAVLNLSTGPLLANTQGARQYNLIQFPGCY
“HA-Smad2 (wild type) (from UniProt Q15796 1-467)” was tested, and the binding was “binds”.
In the case of “HA-Smad2-C-ter (from UniProt Q15796 274-467) (domain or fragment)”, the binding is reported as “binds”.
With “HA-Smad3 (wild type) (from UniProt P84022 1-425)” the binding was “binds”.
